Assay results reported in article PMC3093745 (ACS Medicinal Chemistry Letters, 2011).

Assay: Cytotoxicity in MCF7 breast cancer cell line
Assay type: cell-based
Conditions: human, MCF7 breast cancer cells

Molecule `O=C(CCCCCCC(=O)Nc1ccccc1)NO` [Compound 1, suberoylanilide hydroxamic acid] has an IC50 of 730 ± 380 nM.
